Data on one molecule can be found in PMC12302648.

These are yes or no findings as the source states them, for the method shown. Binding seen in cells or lysates may run through a third protein. Here binding means that the protein was enriched with, or labelled near, the bait; the list need not be complete.

The test addresses T1, Fibroblast growth factor 13 (FGF13), endogenous in mouse primary neurons (mouse (endogenous in primary neurons)) (UniProt P70377).
T1 sequence: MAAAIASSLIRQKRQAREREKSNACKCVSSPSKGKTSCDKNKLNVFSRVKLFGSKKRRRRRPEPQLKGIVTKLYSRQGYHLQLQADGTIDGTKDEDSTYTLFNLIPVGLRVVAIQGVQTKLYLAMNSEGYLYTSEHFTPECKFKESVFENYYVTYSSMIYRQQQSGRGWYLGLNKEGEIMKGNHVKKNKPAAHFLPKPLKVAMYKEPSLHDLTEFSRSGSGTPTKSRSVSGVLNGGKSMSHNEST
The test is described as follows: affinity purification with mass spectrometry; anti-FGF13 immunoprecipitate from control and MPP+-treated primary neurons; label-free mass spectrometry (Q Exactive), searched against UniProtKB.

B1: MTCH2, endogenous in mouse primary neurons (protein, UniProt Q791V5 1-303)
chain: MADAASQVLLGSGLTILSQPLMYVKVLIQVGYEPLPPTIGRNIFGRQVCQLPGLFCYAQHIASIDGRRGLFTGLTPRLCSGVLGTVVHGKVLQYYQESEKPEELGSVTVQKEYSSSFDRVIKETTREMIARSAATLITHPFHVITLRSMVQFIGRESKYCGLCDSIVTIYREEGIVGFFAGLIPRLLGDIISLWLCNSLAYLINTYALDSGVSTMNEMKSYSQAVTGFFASMLTYPFVLVSNLMAVNNCGLAGGSPPYSPIYTSWIDCWCMLQKAGNMSRGNSLFFRKVPCGKTYCYDLRMLI
Consider B1, for which the binding entry is “binds”.
